For 1 compound, EC50 results are on record in US8883850B2, “Naphthalene carboxamide M1 receptor positive allosteric modulators” (Merck Sharp & Dohme Corp., priority 2010, dated 2014).

Chains of the proteins cited; added tags and fusions are not shown.
UniProt P11229, whole entry: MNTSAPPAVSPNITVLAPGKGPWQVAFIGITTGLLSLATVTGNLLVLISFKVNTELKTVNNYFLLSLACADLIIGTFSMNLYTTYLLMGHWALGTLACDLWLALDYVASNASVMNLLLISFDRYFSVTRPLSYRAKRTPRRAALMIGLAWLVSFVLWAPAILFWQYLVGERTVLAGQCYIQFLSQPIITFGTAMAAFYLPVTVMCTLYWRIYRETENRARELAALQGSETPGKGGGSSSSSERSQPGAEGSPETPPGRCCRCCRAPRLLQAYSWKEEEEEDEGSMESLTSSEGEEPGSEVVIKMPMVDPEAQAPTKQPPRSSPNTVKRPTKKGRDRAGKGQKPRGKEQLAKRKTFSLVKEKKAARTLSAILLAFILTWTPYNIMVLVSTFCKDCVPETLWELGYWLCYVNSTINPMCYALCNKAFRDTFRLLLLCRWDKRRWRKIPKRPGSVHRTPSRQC

The match of structure and compound is tentative.

The assay concerns the target acetylcholine muscarinic M1 receptor (Homo sapiens, UniProt P11229). Briefly: M1 FLIPR assay: intracellular calcium, potentiation of acetylcholine EC20. As to conditions: read-out: M1 IP Value; inflection point value from FLIPR assay; CHOnfat/hM1 cells; 4 min pre-incubation, then acetylcholine EC20 (3 nM final); Table 1, Formula (III).

On to `COc1c(C(=O)N[C@H]2CCCC[C@@H]2O)cc(Cc2ccc(C(=O)CCCCOC=O)nc2)c2ccccc12`, for which the EC50 stood at 430 nM.
